Assay results from publication PMC10244169, “Psychedelics promote plasticity by directly binding to BDNF receptor TrkB” (Nature Neuroscience, 2023).
These are yes or no findings as the source states them, for the method shown. Some binding calls cover weakened binding; strength is not graded here.

By UniProt entry, the sequences of proteins in these tests, tags left out. Residues count along the entry.
UniProt Q63604, residues 32-821: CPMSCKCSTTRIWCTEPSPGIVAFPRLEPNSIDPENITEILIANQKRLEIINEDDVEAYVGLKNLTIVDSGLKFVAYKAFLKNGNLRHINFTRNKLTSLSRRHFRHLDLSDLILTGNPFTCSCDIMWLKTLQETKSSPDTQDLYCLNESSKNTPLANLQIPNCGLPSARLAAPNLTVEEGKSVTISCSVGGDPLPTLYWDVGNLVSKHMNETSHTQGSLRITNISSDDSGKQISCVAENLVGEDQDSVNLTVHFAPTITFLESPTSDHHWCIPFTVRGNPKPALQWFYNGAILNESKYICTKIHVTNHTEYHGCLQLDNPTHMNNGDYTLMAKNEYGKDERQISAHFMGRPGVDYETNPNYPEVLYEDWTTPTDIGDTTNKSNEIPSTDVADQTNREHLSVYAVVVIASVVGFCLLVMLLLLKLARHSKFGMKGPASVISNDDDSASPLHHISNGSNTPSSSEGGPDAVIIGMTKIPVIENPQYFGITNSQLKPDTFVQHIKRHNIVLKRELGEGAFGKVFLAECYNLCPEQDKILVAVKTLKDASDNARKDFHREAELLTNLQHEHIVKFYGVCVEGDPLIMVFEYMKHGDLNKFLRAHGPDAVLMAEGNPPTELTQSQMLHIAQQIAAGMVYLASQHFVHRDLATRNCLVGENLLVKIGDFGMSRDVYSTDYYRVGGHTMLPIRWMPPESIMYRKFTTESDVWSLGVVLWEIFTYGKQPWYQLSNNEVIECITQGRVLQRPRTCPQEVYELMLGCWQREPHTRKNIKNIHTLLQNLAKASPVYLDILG

Target: TrkB, endogenous in rat cortical neuronal cultures (rat (endogenous in cortical neuronal cultures)) (UniProt Q63604)
Assay: ELISA; plates coated with goat anti-TrkB, loaded with lysates of rat cortical cultures (DMSO or LSD 1-100 nM, 1 h) or of PFC or hippocampus of mice killed 1 h after LSD (0.1 mg kg^-1); detected with rabbit anti-PLCγ1

B1: phospholipase C gamma 1 (PLCγ1), endogenous in rat cortical neuronal cultures (enzyme, UniProt P10686 1-1290)
chain: MAGVGTPCANGCGPSAPSEAEVLHLCRSLEVGTVMTLFYSKKSQRPERKTFQVKLETRQITWSRGADKIEGSIDIREIKEIRPGKTSRDFDRYQEDPAFRPDQSHCFVILYGMEFRLKTLSLQATSEDEVNMWIKGLTWLMEDTLQAATPLQIERWLRKQFYSVDRNREDRISAKDLKNMLSQVNYRVPNMRFLRERLTDFEQRSGDITYGQFAQLYRSLMYSAQKTMDLPFLETNTLRTGERPELCQVSLSEFQQFLLEYQGELWAVDRLQVQEFMLSFLRDPLREIEEPYFFLDELVTFLFSKENSVWNSQLDAVCPETMNNPLSHYWISSSHNTYLTGDQFSSESSLEAYARCLRMGCRCIELDCWDGPDGMPVIYHGHTLTTKIKFSDVLHTIKEHAFVASEYPVILSIEDHCSIAQQRNMAQHFRKVLGDTLLTKPVDIAADGLPSPNQLKRKILIKHKKLAEGSAYEEVPTSVMYSENDISNSIKNGILYLEDPVNHEWYPHYFVLTSSKIYYSEETSSDQGNEDEEEPKEASGSTELHSSEKWFHGKLGAGRDGRHIAERLLTEYCIETGAPDGSFLVRESETFVGDYTLSFWRNGKVQHCRIHSRQDAGTPKFFLTDNLVFDSLYDLITHYQQVPLRCNEFEMRLSEPVPQTNAHESKEWYHASLTRAQAEHMLMRVPRDGAFLVRKRNEPNSYAISFRAEGKIKHCRVQQEGQTVMLGNSEFDSLVDLISYYEKHPLYRKMKLRYPINEEALEKIGTAEPDYGALYEGRNPGFYVEANPMPTFKCAVKALFDYKAQREDELTFTKSAIIQNVEKQDGGWWRGDYGGKKQLWFPSNYVEEMINPAILEPEREHLDENSPLGDLLRGVLDVPACQIAIRPEGKNNRLFVFSISMPSVAQWSLDVAADSQEELQDWVKKIREVAQTADARLTEGKMMERRKKIALELSELVVYCRPVPFDEEKIGTERACYRDMSSFPETKAEKYVNKAKGKKFLQYNRLQLSRIYPKGQRLDSSNYDPLPMWICGSQLVALNFQTPDKPMQMNQALFMAGGHCGYVLQPSTMRDEAFDPFDKSSLRGLEPCVICIEVLGARHLPKNGRGIVCPFVEIEVAGAEYDSTKQKTEFVVDNGLNPVWPAKPFHFQISNPEFAFLRFVVYEEDMFSDQNFLAQATFPVKGLKTGYRAVPLKNNYSEDLELASLLIKIDIFPAKENGDLSPFSGTSLRERASDASSQLFHVRAREGSFEARYQQPFEDFRISQEHLADHFDSRERRAPRRTRVNGDNRL
With B1 the binding was “binds”.
